Test results reported in paper PMC8546544.
Substitutions are numbered along the chain they refer to. No constants are given. Whether binding was seen depends on the method and setting. In cells and extracts the contact can be indirect. Some binding calls cover weakened binding; strength is not graded here. For some of these results: Where a sequence is shown, tags or fusion partners need not be part of it.

By UniProt entry, the sequences of proteins in these tests, tags left out. Residues count along the entry.
UniProt O15118, residues 23-1278: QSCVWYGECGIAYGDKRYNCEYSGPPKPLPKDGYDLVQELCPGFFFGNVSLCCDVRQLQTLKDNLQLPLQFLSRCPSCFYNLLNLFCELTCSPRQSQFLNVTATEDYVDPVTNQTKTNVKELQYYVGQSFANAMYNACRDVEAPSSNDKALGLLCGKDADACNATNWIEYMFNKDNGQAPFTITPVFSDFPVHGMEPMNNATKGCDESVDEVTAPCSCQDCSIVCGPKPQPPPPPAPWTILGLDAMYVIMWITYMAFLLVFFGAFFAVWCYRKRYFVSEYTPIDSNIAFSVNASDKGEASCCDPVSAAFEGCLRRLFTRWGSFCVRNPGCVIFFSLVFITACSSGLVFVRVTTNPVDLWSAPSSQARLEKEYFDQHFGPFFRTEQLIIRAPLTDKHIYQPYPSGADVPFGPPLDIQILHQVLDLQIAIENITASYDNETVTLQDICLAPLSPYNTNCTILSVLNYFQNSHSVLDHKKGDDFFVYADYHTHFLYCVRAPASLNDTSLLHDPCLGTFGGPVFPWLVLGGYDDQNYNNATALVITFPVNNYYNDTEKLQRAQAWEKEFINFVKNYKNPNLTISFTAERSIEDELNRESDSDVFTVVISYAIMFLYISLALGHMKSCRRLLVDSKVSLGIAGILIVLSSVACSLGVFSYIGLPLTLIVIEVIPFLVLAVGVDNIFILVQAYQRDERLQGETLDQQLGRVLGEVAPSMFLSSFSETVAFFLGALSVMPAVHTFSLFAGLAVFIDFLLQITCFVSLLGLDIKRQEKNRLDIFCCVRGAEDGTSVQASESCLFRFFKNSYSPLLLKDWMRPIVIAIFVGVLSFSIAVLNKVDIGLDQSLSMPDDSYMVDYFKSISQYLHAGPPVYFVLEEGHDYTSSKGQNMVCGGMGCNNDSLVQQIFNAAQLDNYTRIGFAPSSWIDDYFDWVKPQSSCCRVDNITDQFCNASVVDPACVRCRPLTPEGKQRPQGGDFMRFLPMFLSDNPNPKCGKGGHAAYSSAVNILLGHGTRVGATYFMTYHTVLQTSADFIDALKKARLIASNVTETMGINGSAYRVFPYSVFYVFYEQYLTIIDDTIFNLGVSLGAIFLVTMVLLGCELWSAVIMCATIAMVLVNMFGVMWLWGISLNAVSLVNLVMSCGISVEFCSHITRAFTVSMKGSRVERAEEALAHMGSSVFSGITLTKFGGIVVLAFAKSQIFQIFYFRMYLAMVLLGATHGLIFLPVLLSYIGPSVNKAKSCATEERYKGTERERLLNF

How the values were obtained:
[1] = biological target: T1, endogenous flotillin 2 (FLOT2) (human (endogenous in HEK293T)) (UniProt Q14254); test: co-IP; whole-cell lysate of untransfected HEK293T cells (150 mM NaCl, 25 mM Tris-HCl pH 7.6, 1% NP-40) incubated with mouse monoclonal anti-FLOT2 or normal mouse IgG at 4°C overnight, protein G-agarose 2 h; Western blot
T1 sequence: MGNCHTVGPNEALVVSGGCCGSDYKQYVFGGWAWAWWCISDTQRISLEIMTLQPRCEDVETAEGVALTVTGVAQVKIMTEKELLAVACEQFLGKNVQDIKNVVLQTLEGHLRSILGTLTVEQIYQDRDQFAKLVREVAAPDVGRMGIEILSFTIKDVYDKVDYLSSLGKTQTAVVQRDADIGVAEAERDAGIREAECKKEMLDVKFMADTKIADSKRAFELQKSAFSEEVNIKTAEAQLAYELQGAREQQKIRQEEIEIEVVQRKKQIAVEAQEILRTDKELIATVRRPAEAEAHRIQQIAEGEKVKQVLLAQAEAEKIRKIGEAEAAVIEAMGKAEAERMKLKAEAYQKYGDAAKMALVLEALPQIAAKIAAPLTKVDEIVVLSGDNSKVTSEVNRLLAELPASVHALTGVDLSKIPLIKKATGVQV

[2] = biological target: T2, FLOT2^Y124G/Y163G-GFP (human) (UniProt Q14254); test: co-IP; lysate of transfected HEK293T cells (150 mM NaCl, 25 mM Tris-HCl pH 7.6, 1% NP-40) incubated with anti-GFP nanobody affinity gel at 4°C for 4 h; Western blot for the endogenous partner; in one panel cells were untreated, treated with 2.5 mM MβCD or with MβCD plus 20 μg/ml water-soluble cholesterol for 40 min before harvest (MβCD reduced, cholesterol restored the co-precipitate)
T2 sequence: T1 sequence with Y124G, Y163G

FLOT2-GFP (human) = biological target: T3, FLOT2-GFP (human) (UniProt Q14254); test: as above
T3 sequence: T1 sequence

FLOT2^1–183-GFP (human) = biological target: T4, FLOT2^1–183-GFP (human) (UniProt Q14254); test: as above
T4 sequence: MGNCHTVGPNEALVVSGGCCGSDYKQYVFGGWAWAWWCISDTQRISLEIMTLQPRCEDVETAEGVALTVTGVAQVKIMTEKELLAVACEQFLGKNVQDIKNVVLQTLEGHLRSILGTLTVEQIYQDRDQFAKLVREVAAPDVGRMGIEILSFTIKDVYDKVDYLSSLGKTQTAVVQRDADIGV

binding [1]: binds | binding [2]: no binding | binding (FLOT2-GFP (human)): binds | binding (FLOT2^1–183-GFP (human)): binds
Substance: endogenous Niemann-Pick type C1 (NPC1) (from UniProt O15118-1 23-1278)
